Laboratory results taken from publication PMC5239482.
Results are given in words; binding and its absence hold for the method and conditions named. In cells and extracts the contact can be indirect. Some entries that bind do so weakly or less than the wild type.

Sequences of proteins named here, by UniProt entry; tags and fusion partners are left off. Residues count along the entry.
UniProt Q03135: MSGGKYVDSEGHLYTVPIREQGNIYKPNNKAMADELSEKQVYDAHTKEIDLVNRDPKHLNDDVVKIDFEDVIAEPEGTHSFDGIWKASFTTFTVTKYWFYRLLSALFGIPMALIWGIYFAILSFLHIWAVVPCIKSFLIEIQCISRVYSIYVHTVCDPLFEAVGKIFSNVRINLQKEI
UniProt Q96CW1: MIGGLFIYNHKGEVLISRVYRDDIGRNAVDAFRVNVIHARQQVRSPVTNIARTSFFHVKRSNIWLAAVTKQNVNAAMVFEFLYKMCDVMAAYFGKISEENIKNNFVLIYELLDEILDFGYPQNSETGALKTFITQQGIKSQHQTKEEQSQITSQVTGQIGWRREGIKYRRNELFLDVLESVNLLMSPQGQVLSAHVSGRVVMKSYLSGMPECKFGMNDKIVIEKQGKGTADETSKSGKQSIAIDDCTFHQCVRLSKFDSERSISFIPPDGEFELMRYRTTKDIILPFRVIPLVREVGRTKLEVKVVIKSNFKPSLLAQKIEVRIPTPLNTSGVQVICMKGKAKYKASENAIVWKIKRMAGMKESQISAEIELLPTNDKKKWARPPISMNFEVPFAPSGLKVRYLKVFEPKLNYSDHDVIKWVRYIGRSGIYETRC
UniProt P08069, residues 31-1367: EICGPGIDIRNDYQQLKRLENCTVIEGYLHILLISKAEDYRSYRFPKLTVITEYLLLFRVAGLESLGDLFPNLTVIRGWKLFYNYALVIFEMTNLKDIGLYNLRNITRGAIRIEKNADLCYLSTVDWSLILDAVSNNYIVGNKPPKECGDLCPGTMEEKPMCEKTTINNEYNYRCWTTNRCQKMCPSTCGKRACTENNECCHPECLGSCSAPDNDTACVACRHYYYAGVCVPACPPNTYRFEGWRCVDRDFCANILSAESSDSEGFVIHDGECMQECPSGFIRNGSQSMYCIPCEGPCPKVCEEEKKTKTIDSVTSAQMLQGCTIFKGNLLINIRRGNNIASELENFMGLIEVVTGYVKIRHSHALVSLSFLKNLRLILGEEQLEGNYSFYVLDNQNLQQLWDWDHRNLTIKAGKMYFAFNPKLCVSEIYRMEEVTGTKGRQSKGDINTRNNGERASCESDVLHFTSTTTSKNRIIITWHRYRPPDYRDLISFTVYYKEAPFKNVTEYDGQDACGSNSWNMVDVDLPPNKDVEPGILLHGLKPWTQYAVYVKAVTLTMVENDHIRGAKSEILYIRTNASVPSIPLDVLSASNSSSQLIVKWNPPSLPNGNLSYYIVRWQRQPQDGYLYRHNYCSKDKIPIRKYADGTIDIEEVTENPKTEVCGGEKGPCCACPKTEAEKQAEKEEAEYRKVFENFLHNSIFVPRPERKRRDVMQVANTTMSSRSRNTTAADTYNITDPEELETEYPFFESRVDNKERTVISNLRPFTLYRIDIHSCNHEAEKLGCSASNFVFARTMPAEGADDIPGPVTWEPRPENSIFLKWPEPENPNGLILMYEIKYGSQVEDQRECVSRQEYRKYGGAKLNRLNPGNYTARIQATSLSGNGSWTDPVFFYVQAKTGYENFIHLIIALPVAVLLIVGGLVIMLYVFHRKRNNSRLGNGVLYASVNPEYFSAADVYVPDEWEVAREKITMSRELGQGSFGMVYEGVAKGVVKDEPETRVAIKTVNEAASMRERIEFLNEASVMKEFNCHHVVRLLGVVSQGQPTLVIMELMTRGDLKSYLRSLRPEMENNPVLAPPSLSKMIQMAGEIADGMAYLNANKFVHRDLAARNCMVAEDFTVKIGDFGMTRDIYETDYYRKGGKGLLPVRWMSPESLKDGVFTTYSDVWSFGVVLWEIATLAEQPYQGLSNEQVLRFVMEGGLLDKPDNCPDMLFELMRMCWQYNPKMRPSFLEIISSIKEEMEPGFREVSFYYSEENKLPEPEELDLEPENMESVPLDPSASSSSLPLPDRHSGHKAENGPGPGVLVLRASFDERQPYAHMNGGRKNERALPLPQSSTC
UniProt P08047: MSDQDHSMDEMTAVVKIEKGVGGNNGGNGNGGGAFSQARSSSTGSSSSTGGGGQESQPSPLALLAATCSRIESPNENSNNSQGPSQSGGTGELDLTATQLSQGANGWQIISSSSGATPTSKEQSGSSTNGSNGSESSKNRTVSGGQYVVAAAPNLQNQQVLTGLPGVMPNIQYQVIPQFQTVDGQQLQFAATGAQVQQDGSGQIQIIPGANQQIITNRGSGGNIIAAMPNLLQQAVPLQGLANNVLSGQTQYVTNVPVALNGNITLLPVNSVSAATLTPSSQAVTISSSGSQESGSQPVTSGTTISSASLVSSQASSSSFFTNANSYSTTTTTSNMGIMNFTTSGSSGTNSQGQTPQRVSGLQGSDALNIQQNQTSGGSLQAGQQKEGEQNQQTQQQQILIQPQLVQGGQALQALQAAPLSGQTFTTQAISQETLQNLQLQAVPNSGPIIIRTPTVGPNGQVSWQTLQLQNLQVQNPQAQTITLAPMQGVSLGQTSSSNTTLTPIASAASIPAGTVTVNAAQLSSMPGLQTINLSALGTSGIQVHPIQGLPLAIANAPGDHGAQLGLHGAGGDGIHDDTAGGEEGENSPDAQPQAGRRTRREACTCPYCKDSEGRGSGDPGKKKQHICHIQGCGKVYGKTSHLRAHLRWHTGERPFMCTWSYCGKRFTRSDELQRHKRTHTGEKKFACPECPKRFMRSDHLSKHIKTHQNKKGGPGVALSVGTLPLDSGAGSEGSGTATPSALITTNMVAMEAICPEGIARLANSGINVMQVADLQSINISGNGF

molecular target: Caveolin-1, endogenous in VCaP cells (human (endogenous in VCaP)) (UniProt Q03135); test: co-IP; VCaP cell lysates, endogenous proteins; anti-CAV1 (or anti-IgG as control) overnight at 4°C, protein A/G agarose beads, immunoblot

binding, binds:
AP-2 complex subunit mu, endogenous in VCaP cells (from UniProt Q96CW1 1-435)
Insulin-like growth factor-1 receptor, endogenous in VCaP cells (from UniProt P08069 31-1367)
Transcription factor Sp1, endogenous in VCaP cells (from UniProt P08047 1-785)
